No constants are given. Whether binding was seen depends on the method and setting. In cells and extracts the contact can be indirect. A yes stands for co-enrichment or nearness to the bait. Other partners may have been found.
B1: Baz1b (protein, UniProt Q9Z277 1-1479)
chain: MAPLLGRKPFPLVKPLPGEEPLFTIPHTQEAFRTREEYEARLERYSERIWTCKSTGSSQLTHKEAWEEEQEVAELLKEEFPNWYEKLVLEMVHHNTASLEKLVDSAWLEIMTKYAVGEECDFEVGKEKMLKVKIVKIHPLEKVDEEAVEKKSDGACDSPSSDKENSSQMAQDLQKKETVVKEDEGRRESINDRARRSPRKLPTSLKKGERKWAPPKFLPHKYDVKLQNEDKIISNVPADSLIRTERPPNKEILRYFIRHNALRAGTGENAPWVVEDELVKKYSLPSKFSDFLLDPYKYMTLNPSTKRRNTGSPDRKPSKKPKRDSSSLSSPLNPKLWCHVHLEKSLNGPPLKVKNSKNSKSPEEHLEGVMKIMSPNNNKLHSFHIPKKGPAAKKPGKHSDKPLKAKGRGKGILNGQKSTGNSKSPSKCVKTPKTKMKQMTLLDMAKGTQKMTRTPRSSGGVPRSSGKPHKHLPPAALHLIAYYKENKDKEDKKSALSCVISKTARLLSNEDRARLPEELRALVQKRYELLEHKKRWASMSEEQRKEYLKKKRQELKERLREKAKERREREMLERLEKQKRFEDQELGGRNLPAFRLVDTPEGLPNTLFGDVALVVEFLSCYSGLLLPDAQYPITAVSLMEALSADKGGFLYLNRVLVILLQTLLQDEIAEDYGELGMKLSEIPLTLHSVSELVRLCLRRCDVQEDSEGSETDDNKDSTPFEDNEVQDEFLEKLETSEFFELTSEEKLRILTALCHRILMTYSVQDHMETRQQVSAELWKERLAVLKEENDKKRAEKQKRKEMEARNKENGKEENVLGKVDRKKEIVKIEQQVEVEADDMISAVKSRRLLSMQAKRKREIQERETKVRLEREAEEERMRKHKAAAEKAFQEGIAKAKLVLRRTPIGTDRNHNRYWLFSNEVPGLFIEKGWVHNSIDYRFKHHRKDHSNLPDDDYCPRSKKANLGKNASVNAHHGPALEAVETTVPKQGQNLWFLCDSQKELDELLSCLHPQGIRESQLKERLEKRYQEITHSIYLARKPNLGLKSCDGNQELLNFLRSDLIEVATRLQKGGLGYMEGTSEFEARVISLEKLKDFGECVIALQASVIKKFLQGFMAPKQKKRKLQSEDSTKSEEVDEEKKMVEEAKVASALEKWKTAIREAQTFSRMHVLLGMLDACIKWDMSAENARCKVCRKKGEDDKLILCDECNKAFHLFCLRPALYEVPDGEWQCPACQPPTARRNSRGRNYTEESTSEGSEGDESGEEEEEEEEEEEEEEDYEVAGLRLRPRKTIRGKQSVIPAARPGRPPGKKSHPARRSRPKDDPEVDDLVLQTKRISRRQSLELQKCEDILHKLVKYRFSWPFREPVTRDEAEDYYDVIEHPMDFQTIQNKCSCGNYRSVQEFLTDMKQVFANAELYNCRGSHVLSCMEKTEQCLLALLQKHLPGHPYVRRKRRKFPDRLADDEGDSDSESVGQSRGRRQKK
B2: Znf280d (protein, UniProt Q68FE8 1-974)
chain: MVTTYIKSDLQLDGRQFFQPKDNLKMAELFMECEEEELEPWQKKVKEVEEDDDDEPIFVAEIASSKPAISNILNRVNPSSHSRGIKNGILNRGFTASFKPTSQRCLNSASNPVAALPVNFHPESRSSDSSVIVQPFSKPGYVTNSPRVLSNNSSELLFDLTQDTGLSHYQGGPTLSIAGLNETSFLSKRPSGSDISSVNPKKPKPSENTSGIDASSVISSEKSPSVISLQVVPSQGANCSSSQSKNGTTFPRACPKCDIHFNLLDPLKNHMTYCCPDMINNFLGLTKADNLNSANEAKTLESEKGKLIMLVNDFYYGKHEGDVLEEQKTHTTFKCFSCLKVLKNNIRFMNHMKHHLELEKQSSESWEKHTTCQHCYRQFPTPFQLQCHIESTHTPHEFSTICKICELSFETEQILLQHMKDNHKPGEMPYICQVCNYRSSLFSEVESHFRTSHENTKNLLCPFCLKVIKIATPYMHHYMKHQKKGIHRCTKCRLQFLTCKEKMDHKTQHHRTFVKPKQLEGLPPGTKVTIRASVGPLQSGSSVTPSISPSTSTLQLSPPEPDNVTAKNHVKLTTSTPNTTISDPSKANETKSNGSKSKNKSKVSNMQKKQSTLSSSNKKSKVNTALRNLRLRRGVHECIECSSEVKDFANHFPTYVHCSFCRYNTSCSKAYVNHMMSFHSNRPSKRYCIFKKHSENLRGISLVCLNCDFLTDVSGLDNMATHLSQHETHSCRVLVEQVSVCIPTSERLSEIKTEAPTKGQEPVSKETARHSRAEGEPGASHSGSKQDKVPSSEEGTGCDASVCEAAAATHCEKDVTVSDTENVSSSKNILSHDPDVGTDTMEKEEKTHHACQEMELKVDQSSESTNPTEAELSSETRQGLQLTSGDVGIDQFLRQGDEPKSVNSDASDPGSVRLEPLTPSEVLEYEATEILHDGDDPSANTSDTVSDQTGGSPGGSNPCRAETAVDLADGEERS
B3: Bud31 (protein, UniProt Q6PGH1 1-144)
chain: MPKVKRSRKAPPDGWELIEPTLDELDQKMREAETEPHEGKRKVESLWPIFRIHHQKTRYIFDLFYKRKAISRELYEYCIKEGYADKNLIAKWKKQGYENLCCLRCIQTRDTNFGTNCICRVPKSKLEVGRIIECTHCGCRGCSG
B4: Nanog (protein, UniProt Q80Z64 1-305)
chain: MSVGLPGPHSLPSSEEASNSGNASSMPAVFHPENYSCLQGSATEMLCTEAASPRPSSEDLPLQGSPDSSTSPKQKLSSPEADKGPEEEENKVLARKQKMRTVFSQAQLCALKDRFQKQKYLSLQQMQELSSILNLSYKQVKTWFQNQRMKCKRWQKNQWLKTSNGLIQKGSAPVEYPSIHCSYPQGYLVNASGSLSMWGSQTWTNPTWSSQTWTNPTWNNQTWTNPTWSSQAWTAQSWNGQPWNAAPLHNFGEDFLQPYVQLQQNFSASDLEVNLEATRESHAHFSTPQALELFLNYSVTPPGEI

Chains of the proteins cited; added tags and fusions are not shown.
UniProt Q91ZW3: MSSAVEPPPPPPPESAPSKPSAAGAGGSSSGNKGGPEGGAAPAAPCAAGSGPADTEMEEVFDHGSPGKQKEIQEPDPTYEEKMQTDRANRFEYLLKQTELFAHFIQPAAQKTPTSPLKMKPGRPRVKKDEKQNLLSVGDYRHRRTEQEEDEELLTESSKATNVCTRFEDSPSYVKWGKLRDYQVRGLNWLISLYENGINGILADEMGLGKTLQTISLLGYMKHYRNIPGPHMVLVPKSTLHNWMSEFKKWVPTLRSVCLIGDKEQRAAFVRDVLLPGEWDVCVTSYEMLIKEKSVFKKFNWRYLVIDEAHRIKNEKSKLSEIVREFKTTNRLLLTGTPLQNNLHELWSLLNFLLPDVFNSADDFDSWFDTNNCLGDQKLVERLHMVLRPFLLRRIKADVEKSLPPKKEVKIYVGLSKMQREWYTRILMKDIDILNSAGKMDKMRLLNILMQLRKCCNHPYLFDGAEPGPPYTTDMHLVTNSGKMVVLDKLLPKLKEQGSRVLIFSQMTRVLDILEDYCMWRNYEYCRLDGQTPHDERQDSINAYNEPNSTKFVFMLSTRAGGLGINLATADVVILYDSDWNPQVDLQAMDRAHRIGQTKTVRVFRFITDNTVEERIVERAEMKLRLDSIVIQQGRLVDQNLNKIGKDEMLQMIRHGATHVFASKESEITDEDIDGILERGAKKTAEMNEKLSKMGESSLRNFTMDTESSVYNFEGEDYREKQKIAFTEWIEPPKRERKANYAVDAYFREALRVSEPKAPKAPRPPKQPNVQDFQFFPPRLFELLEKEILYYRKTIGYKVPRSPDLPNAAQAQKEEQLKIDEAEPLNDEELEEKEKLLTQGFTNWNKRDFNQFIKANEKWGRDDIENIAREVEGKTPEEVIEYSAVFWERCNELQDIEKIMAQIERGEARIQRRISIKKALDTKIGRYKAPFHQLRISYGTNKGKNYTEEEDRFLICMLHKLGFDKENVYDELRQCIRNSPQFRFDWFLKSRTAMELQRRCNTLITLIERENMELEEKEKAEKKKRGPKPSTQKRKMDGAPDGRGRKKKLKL
UniProt Q91YE5: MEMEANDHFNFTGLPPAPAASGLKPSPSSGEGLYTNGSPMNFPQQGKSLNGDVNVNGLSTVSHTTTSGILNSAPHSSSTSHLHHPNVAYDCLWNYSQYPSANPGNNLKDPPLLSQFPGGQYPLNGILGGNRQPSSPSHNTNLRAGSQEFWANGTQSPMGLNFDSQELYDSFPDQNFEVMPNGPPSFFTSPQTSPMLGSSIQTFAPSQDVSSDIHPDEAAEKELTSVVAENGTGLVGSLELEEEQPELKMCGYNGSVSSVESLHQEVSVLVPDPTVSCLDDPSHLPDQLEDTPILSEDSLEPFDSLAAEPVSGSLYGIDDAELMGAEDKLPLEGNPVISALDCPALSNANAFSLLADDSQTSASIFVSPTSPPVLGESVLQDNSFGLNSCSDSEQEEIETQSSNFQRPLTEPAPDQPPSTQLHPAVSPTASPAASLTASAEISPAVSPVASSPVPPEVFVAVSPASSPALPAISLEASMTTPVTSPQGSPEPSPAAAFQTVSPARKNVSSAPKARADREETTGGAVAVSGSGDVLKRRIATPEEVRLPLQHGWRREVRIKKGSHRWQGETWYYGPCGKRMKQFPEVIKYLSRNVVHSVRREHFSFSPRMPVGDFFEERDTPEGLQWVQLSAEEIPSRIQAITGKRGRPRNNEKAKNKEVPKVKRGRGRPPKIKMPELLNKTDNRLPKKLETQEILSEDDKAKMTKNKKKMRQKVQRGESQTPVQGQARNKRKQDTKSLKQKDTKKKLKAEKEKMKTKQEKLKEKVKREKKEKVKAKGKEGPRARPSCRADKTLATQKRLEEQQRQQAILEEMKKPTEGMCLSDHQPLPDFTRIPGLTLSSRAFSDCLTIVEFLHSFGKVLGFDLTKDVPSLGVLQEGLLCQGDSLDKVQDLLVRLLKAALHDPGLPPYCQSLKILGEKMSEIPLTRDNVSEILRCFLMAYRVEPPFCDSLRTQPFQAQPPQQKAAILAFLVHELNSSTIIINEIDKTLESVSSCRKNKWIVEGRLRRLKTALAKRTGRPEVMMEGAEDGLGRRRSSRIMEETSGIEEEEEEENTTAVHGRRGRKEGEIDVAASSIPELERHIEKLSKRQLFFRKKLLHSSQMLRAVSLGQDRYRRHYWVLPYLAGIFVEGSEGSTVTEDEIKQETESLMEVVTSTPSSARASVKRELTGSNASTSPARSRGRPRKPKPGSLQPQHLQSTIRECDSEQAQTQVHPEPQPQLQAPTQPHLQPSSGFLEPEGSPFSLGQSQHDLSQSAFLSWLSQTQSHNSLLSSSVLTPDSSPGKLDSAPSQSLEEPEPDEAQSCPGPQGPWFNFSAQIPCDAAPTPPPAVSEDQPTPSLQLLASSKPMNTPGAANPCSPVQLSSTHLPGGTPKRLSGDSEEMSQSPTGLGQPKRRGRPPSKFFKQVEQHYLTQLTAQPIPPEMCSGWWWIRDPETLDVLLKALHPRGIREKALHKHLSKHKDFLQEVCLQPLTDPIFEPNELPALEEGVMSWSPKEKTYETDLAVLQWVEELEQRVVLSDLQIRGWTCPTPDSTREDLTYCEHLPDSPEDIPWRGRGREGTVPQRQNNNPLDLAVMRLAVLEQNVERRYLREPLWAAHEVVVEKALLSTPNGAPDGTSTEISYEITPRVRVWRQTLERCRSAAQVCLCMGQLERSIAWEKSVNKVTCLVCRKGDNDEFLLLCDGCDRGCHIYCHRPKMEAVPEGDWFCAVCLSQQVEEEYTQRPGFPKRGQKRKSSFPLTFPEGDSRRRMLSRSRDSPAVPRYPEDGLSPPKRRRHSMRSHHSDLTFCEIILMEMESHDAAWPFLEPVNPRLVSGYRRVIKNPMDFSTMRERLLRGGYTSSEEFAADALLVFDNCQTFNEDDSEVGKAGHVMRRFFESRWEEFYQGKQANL
UniProt E9Q2Z1: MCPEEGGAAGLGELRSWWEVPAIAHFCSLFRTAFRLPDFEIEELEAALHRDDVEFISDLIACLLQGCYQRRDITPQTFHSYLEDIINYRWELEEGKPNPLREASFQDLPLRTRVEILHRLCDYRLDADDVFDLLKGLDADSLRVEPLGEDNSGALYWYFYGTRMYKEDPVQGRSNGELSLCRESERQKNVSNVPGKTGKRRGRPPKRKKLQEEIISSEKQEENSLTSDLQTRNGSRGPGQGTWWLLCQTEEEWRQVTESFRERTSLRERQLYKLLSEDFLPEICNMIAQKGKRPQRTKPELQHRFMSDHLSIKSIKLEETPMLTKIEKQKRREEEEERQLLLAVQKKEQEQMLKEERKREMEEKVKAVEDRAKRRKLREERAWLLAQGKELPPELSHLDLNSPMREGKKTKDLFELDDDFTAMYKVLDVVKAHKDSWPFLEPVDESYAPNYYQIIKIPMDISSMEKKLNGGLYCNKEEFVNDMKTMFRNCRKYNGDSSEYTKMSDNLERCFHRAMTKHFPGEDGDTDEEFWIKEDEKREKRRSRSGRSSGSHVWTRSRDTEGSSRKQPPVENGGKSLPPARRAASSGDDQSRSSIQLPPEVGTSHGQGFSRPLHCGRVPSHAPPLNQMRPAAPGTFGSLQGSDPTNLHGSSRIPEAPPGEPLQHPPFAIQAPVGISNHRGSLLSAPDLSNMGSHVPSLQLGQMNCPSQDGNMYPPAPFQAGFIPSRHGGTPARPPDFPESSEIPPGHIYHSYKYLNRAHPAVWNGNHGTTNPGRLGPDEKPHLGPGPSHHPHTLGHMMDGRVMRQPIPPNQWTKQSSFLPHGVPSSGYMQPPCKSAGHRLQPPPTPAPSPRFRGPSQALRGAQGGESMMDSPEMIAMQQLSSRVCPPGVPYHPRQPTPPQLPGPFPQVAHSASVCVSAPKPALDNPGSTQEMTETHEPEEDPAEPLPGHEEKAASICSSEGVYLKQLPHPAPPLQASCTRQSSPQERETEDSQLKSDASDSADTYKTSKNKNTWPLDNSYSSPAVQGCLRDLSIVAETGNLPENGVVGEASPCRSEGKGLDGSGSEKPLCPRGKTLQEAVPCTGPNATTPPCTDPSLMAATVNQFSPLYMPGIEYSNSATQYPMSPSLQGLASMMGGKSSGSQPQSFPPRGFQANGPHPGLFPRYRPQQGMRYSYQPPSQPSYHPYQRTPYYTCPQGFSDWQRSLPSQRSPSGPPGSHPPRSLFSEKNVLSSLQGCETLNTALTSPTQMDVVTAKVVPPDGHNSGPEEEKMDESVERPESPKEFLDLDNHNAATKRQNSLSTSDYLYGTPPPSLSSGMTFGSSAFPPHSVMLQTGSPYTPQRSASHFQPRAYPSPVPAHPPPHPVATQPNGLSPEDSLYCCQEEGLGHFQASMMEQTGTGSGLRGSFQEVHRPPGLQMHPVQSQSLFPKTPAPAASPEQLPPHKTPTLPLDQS
UniProt Q61103: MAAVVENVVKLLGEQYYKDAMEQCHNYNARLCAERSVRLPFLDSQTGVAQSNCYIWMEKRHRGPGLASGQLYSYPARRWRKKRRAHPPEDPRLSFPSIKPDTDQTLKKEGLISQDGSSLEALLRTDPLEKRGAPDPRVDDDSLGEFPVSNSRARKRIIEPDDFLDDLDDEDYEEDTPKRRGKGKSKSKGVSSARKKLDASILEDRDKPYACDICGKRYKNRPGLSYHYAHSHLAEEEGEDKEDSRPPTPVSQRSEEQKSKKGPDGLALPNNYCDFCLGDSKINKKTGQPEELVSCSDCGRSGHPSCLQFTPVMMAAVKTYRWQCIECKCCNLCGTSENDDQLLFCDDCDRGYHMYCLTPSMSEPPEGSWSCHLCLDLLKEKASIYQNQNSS
UniProt O54941: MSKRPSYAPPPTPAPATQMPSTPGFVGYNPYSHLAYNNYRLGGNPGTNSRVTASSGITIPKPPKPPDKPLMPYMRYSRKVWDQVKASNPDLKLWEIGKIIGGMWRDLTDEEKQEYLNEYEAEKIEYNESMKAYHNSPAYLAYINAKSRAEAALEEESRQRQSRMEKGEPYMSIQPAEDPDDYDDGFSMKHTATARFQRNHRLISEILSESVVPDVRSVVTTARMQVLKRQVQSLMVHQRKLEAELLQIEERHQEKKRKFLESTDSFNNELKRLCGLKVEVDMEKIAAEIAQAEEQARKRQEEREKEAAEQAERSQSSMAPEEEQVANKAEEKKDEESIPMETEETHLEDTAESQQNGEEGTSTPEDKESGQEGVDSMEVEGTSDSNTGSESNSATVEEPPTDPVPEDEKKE

Target: Smarca5 with endogenous GFP-3XFLAG tag (mouse) (UniProt Q91ZW3)
Assay: affinity purification with mass spectrometry; benzonase-treated nuclear lysate of mouse ES cells on magnetic anti-FLAG M2 beads, 2 h at 4 °C; washes with 200 mM KCl, 0.25% Triton, 0.25% NP-40, 0.1% Na-deoxycholate buffer; three samples with flag-tagged Smarca5 against three with untagged WT Smarca5 as control; on-bead digest; the same samples measured by a conventional workflow (PepMap 50 cm, m/z 1, MS Amanda 2.0) and the advanced workflow (µPAC 110 cm, m/z 4 WWA, CHIMERYS); limma test

Row | binding | Molecule
1 | binds | Arid1a (BAF250a) (from UniProt A2BH40 1-2283)
2 | binds | Baz2a (from UniProt Q91YE5 1-1889)
3 | binds | Baz2b (from UniProt A2AUY4 1-2123)
4 | binds | Cecr2 (from UniProt E9Q2Z1 1-1453)
5 | binds | Dpf2 (from UniProt Q61103 1-391)
6 | binds | Smarce1 (from UniProt O54941 1-411)

Target: Smarca5 with endogenous GFP-3XFLAG tag (mouse) (UniProt Q91ZW3)
Assay: as above
Remark: another data set of the same source

Row | binding | Molecule
7 | binds | B1
8 | binds | B2
9 | binds | B3
10 | binds | B4

— publication PMC10838342
